In patent publication US20230250193A1 (PROVIVA THERAPEUTICS HONG KONG, published 2023) one finds binding data, which are given here for one molecule.

The target in this experiment is T1, B7H3 protein expressed on cells (human) (UniProt Q5ZPR3).
T1 sequence: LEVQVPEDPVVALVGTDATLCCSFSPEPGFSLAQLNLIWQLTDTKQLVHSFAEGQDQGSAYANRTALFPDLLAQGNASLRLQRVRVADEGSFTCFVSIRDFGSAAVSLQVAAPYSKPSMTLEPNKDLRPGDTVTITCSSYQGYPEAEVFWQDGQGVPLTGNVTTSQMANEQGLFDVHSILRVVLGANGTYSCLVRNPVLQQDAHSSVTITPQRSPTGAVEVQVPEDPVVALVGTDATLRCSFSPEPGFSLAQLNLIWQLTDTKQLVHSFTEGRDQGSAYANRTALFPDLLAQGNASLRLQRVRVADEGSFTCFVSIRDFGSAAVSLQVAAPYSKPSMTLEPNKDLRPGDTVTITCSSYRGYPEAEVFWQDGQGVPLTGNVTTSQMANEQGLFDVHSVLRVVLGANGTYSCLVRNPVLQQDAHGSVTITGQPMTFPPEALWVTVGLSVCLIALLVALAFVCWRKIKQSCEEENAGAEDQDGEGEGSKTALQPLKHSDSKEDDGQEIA
Nature of the experiment: flow cytometry on B7H3-expressing cells, PE-labeled anti-human IgG detection. On the technique in general: In flow cytometry, cells or beads pass a laser one at a time.

These are yes or no findings as the source states them, for the method shown. Some binding calls cover weakened binding; strength is not graded here.

B1: P28832158 (antibody, human IgG1, kappa, V domains shown)
VH: QVQLVQSGAEVKKPGASVKVSCKASGYTFTMNIIHWVRQAPGQGLEWMGWIHPGSGAIKYAQKLQGRVTMTTDTSTSTAYMELRSLRSDDTAVYYCARHGGTGRGAMDYWGQGTLVTVSS
VL: EIVLTQSPGTLSLSPGERATLSCRASQSVSTSAYSYMHWYQQKPGQAPRLLIYLASNLESGIPDRFSGSGSGTDFTLTISRLEPEDFAVYYCQQSRELPYTFGQGTKLEIKR
notes: Produced in Expi293 cells; also called M-87_G1; VH6.32/VL7.00
Consider B1, for which the binding result was “binds”.
